Reference: article PMC7819943, “Rice protein-binding microarrays: a tool to detect cis-acting elements near promoter regions in rice”
The other results are listed elsewhere or left out.

Protein sequences, listed by entry. Tags and fused reporters are not part of them.
UniProt Q0JBA9, entry or part of it: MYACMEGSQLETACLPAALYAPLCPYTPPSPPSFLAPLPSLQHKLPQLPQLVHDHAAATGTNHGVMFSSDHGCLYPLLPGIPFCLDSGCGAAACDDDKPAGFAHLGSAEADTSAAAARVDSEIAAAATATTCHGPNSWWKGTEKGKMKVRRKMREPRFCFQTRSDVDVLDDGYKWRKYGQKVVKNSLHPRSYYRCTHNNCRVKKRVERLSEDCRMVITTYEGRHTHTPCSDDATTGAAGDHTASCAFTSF

Target: OsWRKY34 (Oryza sativa, UniProt Q0JBA9 1-250)
Assay: protein-binding microarray (RPBM); PBS, 2% BSA, 51.3 ng/ul salmon testes DNA, 50 uM zinc acetate, 200 nM TF, 25 C, 1 h; high values mean tight binding
Details: protein: recombinant; tags: N-terminal polyhistidine and DsRed monomer fusion (pET32a); label: CyDye5-dUTP incorporated in the synthesized complementary strand; 3' TTTTT single-stranded linker to array surface; dsDNA, one strand shown
Method in brief: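 The binding signal is fluorescence intensity per feature, in arbitrary units, read on an Axon 4000B scanner. Polyhistidine- and DsRed-tagged transcription factors (N-terminal fusions) from E. coli BL21-CodonPlus were purified on Ni–NTA and applied at 200 nM for 1 h at 25 °C to a double-stranded, BSA-blocked custom Agilent array in buffer with 50 µM zinc acetate.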

Sequence | binding signal
TAACTATTTTTTCTCTATTATGTAGGCACATGCACACACACGGAGTCACCTAGTGCAG | 8560 fluorescence intensity (a.u.)
CCACGCACGCGCGCACTCGCATTCCGCCGTCCGCCATGGACGGAGTCACCTAGTGCAG | 8080 fluorescence intensity (a.u.)
TGAGCTTTGTCCTTGCTACCGTTCTTAATTTAAGCCTCAACGGAGTCACCTAGTGCAG | 11400 fluorescence intensity (a.u.)
AACGCAGGAAATTCACAGATTTTCACACGATTTTGTCCTTCGGAGTCACCTAGTGCAG | 8360 fluorescence intensity (a.u.)
TGTGGGAGGGCCTCTGTTTTCATTGGGTTTGTTTGTTTTTCGGAGTCACCTAGTGCAG | 11200 fluorescence intensity (a.u.)
TCCATCCACATGTGCATTAAAACTGTATTCTTTGACCTGACGGAGTCACCTAGTGCAG | 8320 fluorescence intensity (a.u.)
CACACCTCTATCTCCTTTGTTTCTGTTCCCAATTTCTATTCGGAGTCACCTAGTGCAG | 14500 fluorescence intensity (a.u.)
CCAAACTCATCTGCCAACATGTTAATTACTTTTATGCTGCCGGAGTCACCTAGTGCAG | 8150 fluorescence intensity (a.u.)
CGCCCCGCCATCCTACTGCTCCTACTGCTCTATCGAGTTCCGGAGTCACCTAGTGCAG | 11600 fluorescence intensity (a.u.)
TCCTGGATTCACAGGTCTACATTTGCAGCTCGACCTTTGACGGAGTCACCTAGTGCAG | 10000 fluorescence intensity (a.u.)
CTCTCTCCCGCCATATTCTGGTCACCTCCGGTGAGCTCACCGGAGTCACCTAGTGCAG | 10300 fluorescence intensity (a.u.)
CTTGCAATTTATACGTAATCTGTGTAATTAGTTTTTTTTGCGGAGTCACCTAGTGCAG | 9120 fluorescence intensity (a.u.)
TCATTCCCTCCGTACCATTATGTTTGGGTTCTGTTGTGCTCGGAGTCACCTAGTGCAG | 9750 fluorescence intensity (a.u.)
CCAGTTCAACACCGTCACGTAGGCGCCACATCAGCGAAATCGGAGTCACCTAGTGCAG | 8430 fluorescence intensity (a.u.)
AATACGGTTTGGAAGGGATCTTTTTTGGTTGGTTGCACTGCGGAGTCACCTAGTGCAG | 9650 fluorescence intensity (a.u.)
TCTCACTGTCTTTCTCACACGCACGCACGCGAGAGCGCACCGGAGTCACCTAGTGCAG | 8880 fluorescence intensity (a.u.)
CGGTTAGTTAGTTGATTAGTTATCTGCATGTTTCTGTTTTCGGAGTCACCTAGTGCAG | 10200 fluorescence intensity (a.u.)
AAGCTGCCTGCCTTTCGTTTTCCAGCTTCCAACGCGATCTCGGAGTCACCTAGTGCAG | 8420 fluorescence intensity (a.u.)
CCACCGGCCGCCGCGCCGCGCCCCTTCTCCCAGCCGGACACGGAGTCACCTAGTGCAG | 8860 fluorescence intensity (a.u.)
ACTCTACAGAAGAGCCCTAAATTTTGTTCTTTCTTGTTCTCGGAGTCACCTAGTGCAG | 8260 fluorescence intensity (a.u.)
TGGACTTGTGGTCGGAGGTGGGATTGATTTGGGTGACATGCGGAGTCACCTAGTGCAG | 8900 fluorescence intensity (a.u.)
GTAGCTTCTGCCTCGCGTCCGTCTCCTGCATCCGCAGTCGCGGAGTCACCTAGTGCAG | 8510 fluorescence intensity (a.u.)
TCTTACTCTCTCAGTTTCAAGTTATAAAATGTTTTGGCTTCGGAGTCACCTAGTGCAG | 9020 fluorescence intensity (a.u.)
AATCCGTTCATATCACCTCGCTCGCTTAGCCGTACGCGTGCGGAGTCACCTAGTGCAG | 8030 fluorescence intensity (a.u.)
CTCACCCCACCGCGCCCTCTCTTCGCCGTCTGACCCGTCACGGAGTCACCTAGTGCAG | 9030 fluorescence intensity (a.u.)
ACGCATGGGTTTTTTCTGTACCCTTAATCGAGATATCACTCGGAGTCACCTAGTGCAG | 11000 fluorescence intensity (a.u.)
TCAGTACATCACCCAATCCAATGTTGTCTCGCAGAAATCACGGAGTCACCTAGTGCAG | 8490 fluorescence intensity (a.u.)

Sequence | binding signal
TCACCGGCTGCTACTACCGCCTTATCGCTGCCTTGCTACCCGGAGTCACCTAGTGCAG | 10200 fluorescence intensity (a.u.)
AAACTGCTCCGAATTATTTCGTACTTTCTGTTCTTGTTTTCGGAGTCACCTAGTGCAG | 9900 fluorescence intensity (a.u.)
GAATTTAAAGCGTTATTTTCATTTTAGTTCTGAAATCTCACGGAGTCACCTAGTGCAG | 8220 fluorescence intensity (a.u.)
TTGGTTGGTTGGGTGACATTTTATTTATTGGTTGAGGTTACGGAGTCACCTAGTGCAG | 10600 fluorescence intensity (a.u.)
GACTAGGATTGTTGACCCTACATTTTTTTCCCACTTACATCGGAGTCACCTAGTGCAG | 11500 fluorescence intensity (a.u.)
TTCACTGCAGCAGCTGTCTTGCTCCCTCTTTTTCATCTTGCGGAGTCACCTAGTGCAG | 9330 fluorescence intensity (a.u.)
GATTTATTGCAACAGTGCGTGTGGTGGGGCGCGTGGTGGACGGAGTCACCTAGTGCAG | 11200 fluorescence intensity (a.u.)
CTCTCAGACTCACACTGTCACACATGCACTCCACACTTACCGGAGTCACCTAGTGCAG | 11500 fluorescence intensity (a.u.)
ACATACACTACACACCCTGTTCTTGCAGTACGCCAATTAACGGAGTCACCTAGTGCAG | 9780 fluorescence intensity (a.u.)
CTCTAGCTACCTCGATCACCACCTCTCTCTCTCTCAAGCACGGAGTCACCTAGTGCAG | 9650 fluorescence intensity (a.u.)
TTACAAGACTTAATTTCAAGGTCCGTCGATTGTCTCTCCACGGAGTCACCTAGTGCAG | 8830 fluorescence intensity (a.u.)
GCACCTCAGCCTTATCATACAGTAGAATATAGAACATTTGCGGAGTCACCTAGTGCAG | 8410 fluorescence intensity (a.u.)
CAACCTGTCATACACACACCTTTTTAGTTACATCATCTCTCGGAGTCACCTAGTGCAG | 8190 fluorescence intensity (a.u.)
CGATCACTTCGCCCGGCCAATGCTCCGCTATAAAACCCTCCGGAGTCACCTAGTGCAG | 8310 fluorescence intensity (a.u.)
TCATTTTACTATTTTACTATTTATTTTTGTGGTCTATTTACGGAGTCACCTAGTGCAG | 9260 fluorescence intensity (a.u.)
GCATGGGCAGATTGTTGGGCTTTCTTTGGTTCAGCTGAACCGGAGTCACCTAGTGCAG | 9200 fluorescence intensity (a.u.)
TGAAGTAATTTTCCTTAAGTATTCCTGCACGTTTGTTCTACGGAGTCACCTAGTGCAG | 8450 fluorescence intensity (a.u.)
GGGTGGACTTTTCGTACTCGTGGATGGGCCTACCAAAATGCGGAGTCACCTAGTGCAG | 8410 fluorescence intensity (a.u.)
ACTTGATGTTCTTTCGTTCTTTCCTGCGAAAACGTCAGGCCGGAGTCACCTAGTGCAG | 25600 fluorescence intensity (a.u.)
CTTCGCCATCGTCTCCTCCTAGGCATGTGTTGTTGCTCCGCGGAGTCACCTAGTGCAG | 10700 fluorescence intensity (a.u.)
AGCACACAAATGCCCAATCTGCCACTTTCCACTTCTCTGCCGGAGTCACCTAGTGCAG | 8370 fluorescence intensity (a.u.)
TTATTTATTCTACATCTGACTTTAGGATCTCGTTTATACCCGGAGTCACCTAGTGCAG | 8520 fluorescence intensity (a.u.)
TCTCCTTACCTGTTAACTTTCTCCCTGACAGCTATTGCAACGGAGTCACCTAGTGCAG | 9520 fluorescence intensity (a.u.)
TGTTACCGGTTTCCGATCTGTACCGACATGTTTCCGTCCGCGGAGTCACCTAGTGCAG | 8240 fluorescence intensity (a.u.)
CATCCATTGCGTTGGCATCACTCATATTTCATCGAGAAAGCGGAGTCACCTAGTGCAG | 8460 fluorescence intensity (a.u.)
CTATATATAAACGAGCACATCTCGTCGTCCCTCGCCATTCCGGAGTCACCTAGTGCAG | 10400 fluorescence intensity (a.u.)
TACTTAGCTAGCTAATCGCGTTGCTCTTTCTCGTACTATACGGAGTCACCTAGTGCAG | 8980 fluorescence intensity (a.u.)

Given with tabs: part of the list above.
Sequence	binding signal
TCACCGGCTGCTACTACCGCCTTATCGCTGCCTTGCTACCCGGAGTCACCTAGTGCAG	10200 fluorescence intensity (a.u.)
GAATTTAAAGCGTTATTTTCATTTTAGTTCTGAAATCTCACGGAGTCACCTAGTGCAG	8220 fluorescence intensity (a.u.)
GACTAGGATTGTTGACCCTACATTTTTTTCCCACTTACATCGGAGTCACCTAGTGCAG	11500 fluorescence intensity (a.u.)
GATTTATTGCAACAGTGCGTGTGGTGGGGCGCGTGGTGGACGGAGTCACCTAGTGCAG	11200 fluorescence intensity (a.u.)
CTCTCAGACTCACACTGTCACACATGCACTCCACACTTACCGGAGTCACCTAGTGCAG	11500 fluorescence intensity (a.u.)
ACATACACTACACACCCTGTTCTTGCAGTACGCCAATTAACGGAGTCACCTAGTGCAG	9780 fluorescence intensity (a.u.)
GCATGGGCAGATTGTTGGGCTTTCTTTGGTTCAGCTGAACCGGAGTCACCTAGTGCAG	9200 fluorescence intensity (a.u.)
TGAAGTAATTTTCCTTAAGTATTCCTGCACGTTTGTTCTACGGAGTCACCTAGTGCAG	8450 fluorescence intensity (a.u.)
AGCACACAAATGCCCAATCTGCCACTTTCCACTTCTCTGCCGGAGTCACCTAGTGCAG	8370 fluorescence intensity (a.u.)
TGTTACCGGTTTCCGATCTGTACCGACATGTTTCCGTCCGCGGAGTCACCTAGTGCAG	8240 fluorescence intensity (a.u.)
TACTTAGCTAGCTAATCGCGTTGCTCTTTCTCGTACTATACGGAGTCACCTAGTGCAG	8980 fluorescence intensity (a.u.)
